Measured values: patent US8835377B2, “Oral delivery of peptide pharmaceutical compositions” (UGP Therapeutics, Inc., priority 2004, dated 2014)
The source gives many values for each of these; only a part stands here.

Assay: Pharmacokinetics after oral capsules (sCT plus Dmt-DALDA with citric acid and lauroyl carnitine), non-enteric coated or enteric coated, in fasted beagle dogs (plasma; ELISA for sCT, HPLC-MS for Dmt-DALDA)
Assay type: in vivo
Procedure: A second series of tests was carried out, as noted above, using beagle dogs. […] In the experiments represented in FIGS. 2A and 2B, size 00 […] capsules were each filled with 758 mg of a powdered blend consisting of citric acid (643 mg), lauroyl carnitine (66 mg), talc (33 mg), salmon calcitonin (sCT) (13 mg) and Dmt-DALDA (2.4 mg). Half of the capsules were coated with an enteric coating solution of L30D-55, while the remaining 50% of the capsules were not coated. Four fasted dogs were each given 1 uncoated capsule, and 2 weeks later they were each given an enteric coated capsule. After administration of each capsule, samples of blood were taken at 15 minute intervals from an indwelling catheter for up to 4 hours. The blood samples were centrifuged and the resulting plasma supernatants were stored frozen at −20° C. The plasma samples were subsequently analyzed for sCT by a direct ELISA, and for Dmt-DALDA by HPLC-mass spectrometry performed as set forth in Wan, H. and Desiderio, D., Quantitation of [DMT^1] DALDA in ovine plasma by on-line liquid chromatography/quadrapole time-of-flight mass spectrometry, Rapid Communications in Mass Spectrometry, 2003; 17, 538-546, the contents of which are incorporated herein by reference.
The results summarized in FIGS. 2A and 2B as plasma peptide concentration normalized to a 1 mg dose as a function of time relative to the average Tmax, (i.e., the time at which the maximum amount of peptide was detected) indicate that both peptides, i.e., sCT and Dmt-DALDA, were detected in dogs given uncoated or enteric coated capsules. […] Table DI (below) sets forth the values upon which the curves in FIGS. 2A and 2B are based. The results are summarized in the tables as plasma peptide concentration normalized to a 1 mg dose as a function of time. Table III, moreover, provides the standard deviations for the data obtained regarding each of the test dogs, which standard deviations are also indicated in FIGS. 2A and 2B.
Table IV (below) summarizes the pharmacokinetic parameters in dogs of orally administered sCT and Dmt-DALDA when administered in non-enteric coated versus enteric coated capsules. Peptide was not detected from 1 dog in each group due to (a) Dog 3 vomiting the uncoated capsule and (b) delayed gastric emptying in Dog 2 provided with an enteric coated capsule. Cmax and AUC are as defined with regard to Table H above.

[1] = enteric coated capsule, Dog 1, 225 min
[2] = enteric coated capsule, Dog 1, 240 min
[3] = enteric coated capsule, Dog 2 (delayed gastric emptying), 225 min
[4] = enteric coated capsule, Dog 2 (delayed gastric emptying), 240 min
[5] = enteric coated capsule, Dog 3, 210 min
[6] = enteric coated capsule, Dog 3, 225 min
[7] = enteric coated capsule, Dog 3, 240 min
[8] = enteric coated capsule, Dog 4, 210 min
[9] = enteric coated capsule, Dog 4, 225 min
[10] = enteric coated capsule, Dog 4, 240 min
[11] = non-enteric coated capsule, Dog 1, 0 min
[12] = non-enteric coated capsule, Dog 1, 15 min
[13] = non-enteric coated capsule, Dog 1, 30 min
[14] = non-enteric coated capsule, Dog 2, 0 min
[15] = non-enteric coated capsule, Dog 2, 15 min
[16] = non-enteric coated capsule, Dog 2, 30 min
[17] = non-enteric coated capsule, Dog 3 (vomited capsule), 0 min
[18] = non-enteric coated capsule, Dog 3 (vomited capsule), 15 min
[19] = non-enteric coated capsule, Dog 3 (vomited capsule), 30 min
[20] = non-enteric coated capsule, Dog 4, 0 min
[21] = non-enteric coated capsule, Dog 4, 15 min
[22] = non-enteric coated capsule, Dog 4, 30 min

| Compound | plasma peptide concentration normalized to a 1 mg dose [1] [pg/mL] | plasma peptide concentration normalized to a 1 mg dose [2] [pg/mL] | plasma peptide concentration normalized to a 1 mg dose [3] [pg/mL] | plasma peptide concentration normalized to a 1 mg dose [4] [pg/mL] | plasma peptide concentration normalized to a 1 mg dose [5] [pg/mL] | plasma peptide concentration normalized to a 1 mg dose [6] [pg/mL] | plasma peptide concentration normalized to a 1 mg dose [7] [pg/mL] | plasma peptide concentration normalized to a 1 mg dose [8] [pg/mL] | plasma peptide concentration normalized to a 1 mg dose [9] [pg/mL] | plasma peptide concentration normalized to a 1 mg dose [10] [pg/mL] | plasma peptide concentration normalized to a 1 mg dose [11] [pg/mL] | plasma peptide concentration normalized to a 1 mg dose [12] [pg/mL] | plasma peptide concentration normalized to a 1 mg dose [13] [pg/mL] | plasma peptide concentration normalized to a 1 mg dose [14] [pg/mL] | plasma peptide concentration normalized to a 1 mg dose [15] [pg/mL] | plasma peptide concentration normalized to a 1 mg dose [16] [pg/mL] | plasma peptide concentration normalized to a 1 mg dose [17] [pg/mL] | plasma peptide concentration normalized to a 1 mg dose [18] [pg/mL] | plasma peptide concentration normalized to a 1 mg dose [19] [pg/mL] | plasma peptide concentration normalized to a 1 mg dose [20] [pg/mL] | further results |
| --- | --- | --- | --- | --- | --- | --- | --- | --- | --- | --- | --- | --- | --- | --- | --- | --- | --- | --- | --- | --- | --- |
| Cc1cc(O)cc(C)c1C[C@H](N)C(=O)N[C@H](CCCNC(=N)N)C(=O)N[C@@H](Cc1ccccc1)C(=O)N[C@@H](CCCCN)C(N)=O [Dmt-DALDA, H-2,6-dimethyltyrosine-D-Arginine-Phenylalanine-Lysine-NH2] | 2896 | 2527 | 0 | 0 | 4772 | 4884 | 3651 | 2664 | 2490 | 1851 | 0 | 0 | 4108 | 0 | 0 | 6473 | 0 | 0 | 0 | 0 | plasma peptide concentration normalized to a 1 mg dose [21]: 0 pg/mL; plasma peptide concentration normalized to a 1 mg dose [22]: 5456 pg/mL |
| CC(C)C[C@H](NC(=O)[C@H](CCCCN)NC(=O)CNC(=O)[C@H](CC(C)C)NC(=O)[C@@H](NC(=O)[C@@H]1CSSC[C@H](N)C(=O)N[C@@H](CO)C(=O)N[C@@H](CC(N)=O)C(=O)N[C@@H](CC(C)C)C(=O)N[C@@H](CO)C(=O)N[C@@H]([C@@H](C)O)C(=O)N1)C(C)C)C(=O)N[C@@H](CO)C(=O)N[C@@H](CCC(N)=O)C(=O)N[C@@H](CCC(=O)O)C(=O)N[C@@H](CC(C)C)C(=O)N[C@@H](Cc1c[nH]cn1)C(=O)N[C@@H](CCCCN)C(=O)N[C@@H](CC(C)C)C(=O)N[C@@H](CCC(N)=O)C(=O)N[C@H](C(=O)N[C@@H](Cc1ccc(O)cc1)C(=O)N1CCC[C@H]1C(=O)N[C@@H](CCCNC(=N)N)C(=O)N[C@H](C(=O)N[C@@H](CC(N)=O)C(=O)N[C@H](C(=O)NCC(=O)N[C@@H](CO)C(=O)NCC(=O)N[C@H](C(=O)N1CCC[C@H]1C(N)=O)[C@@H](C)O)[C@@H](C)O)[C@@H](C)O)[C@@H](C)O [sCT, salmon calcitonin] | 331 | 179 | 0 | 0 | 1194 | 734 | 626 | 867 | 686 | 515 | 0 | 0 | 2648 | 0 | 0 | 3148 | 0 | 0 | 0 | 0 | plasma peptide concentration normalized to a 1 mg dose [21]: 0 pg/mL; plasma peptide concentration normalized to a 1 mg dose [22]: 971 pg/mL |
